Z-score data for 106 sequences are collected here from PubChem BioAssay AID1508600 (Functional Genomics Laboratory (NCATS/FGL), 2020).

In all, about 53,000 sequences went through this assay and about 3,700 (7%) were called active.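 How the source made its calls: active means gene knockdowns whose robust z-score for IL-1 alpha signal is at least 2 or at most -2, so actives lie on both sides; inactive means the rest.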 Some of the results follow.

This assay in a line: Components of the Cytosolic LPS Sensing Pathway: Gene Identification via Genome-wide siRNA Screen.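 Further: robust z of the log signal after scaling to non-targeting control siRNA wells of the plate.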 Particulars: RAW264.7 macrophages, IL-1a HTRF, actives lie on both sides, screened at 100 nM (by protocol), cells primed 5 h with Pam3CSK4 first. In short, it runs like this:
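Cells (RAW264.7, 1×10^4 per well) were transfected with siRNA at 100 nM and cultured 48h at 37 degrees C. Pam3CSK4 was added for 5 hours; LipidA transfection followed for 24 hour. IL-1a was then measured by HTRF.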
On the technique in general: TR-FRET usually uses a lanthanide donor and a delayed reading to cut background.
For GCACCGGCUUUACUAAUGGTT against Ppnr, the z-score was inactive: 0.563.

In the case of GGACCAGAAAUACAUUUUCTT against Arhgef2, the z-score is inactive: -0.288. The result for GGAGGACAAUGAUUUCCGATT against Ndst3 reads inactive: -0.363; that for GAGAUGGAAAGUGGUUUCUTT against Olfr1226, inactive: 0.543. Take GGAAUAAGAUGAAAUACCCTT against Tmeff2: the z-score is inactive: 0.00419. The result for GCCACAUGGUUAAUAAGAGTT against Postn reads inactive: -1.5. As for GCGAGUAGAAUUCUUUAACTT against Med12, the figure is inactive: 1.6; as for GGCUGAUGAGUAUAGUUUATT against Serpini2, inactive: 0.66. As for GGCAAAUGUACUAAAAUGATT against Gpr34, the z-score is inactive: 0.764. The result for GCGAUGAAAUCUAAAGCCATT against Gpr146 reads inactive: 0.0035; that for GGAAGAGAGCAUUAAGCCCTT against Eif3k, inactive: 0.283. CCCUAACUACUUCAUGAAUTT against Paip1: the z-score was active: -2.11. As for GGAUCUCAUGGAGGAGAAUTT against Stbd1, the figure is inactive: 1.47; as for GCUCUGUGUUCUUAGGAGATT against Gaa, inactive: 0.482. As for GCCAUGGCAUAAAAACUGGTT against P2rx6, the figure is inactive: -0.329. The result for GGCAGAAAUCAAUGACUUGTT against Map2k7 reads inactive: 0.937; that for GGAGUGACCACAACAAUUGTT against Slc39a12, inactive: -2. Regarding GGAGAAGAAAAAGAAGGACTT against Pak1, the z-score is inactive: -0.932. With GGCUUAUGACCAUGACAGCTT against Tenm2, the z-score is inactive: -0.565. Regarding GGUACUAUGGUUAAGCAGUTT against Dnd1, the z-score is inactive: -1.1. Turning to GGAAGGACUUAAACUUCAUTT against Csf2ra, the z-score is inactive: -0.268. Consider GGCCAUGGACAAAAUGUACTT against Tfap2a, for which the z-score was inactive: 0.473.

On to GGUACCCACCUUCGCUUAUTT against Ferd3l, for which the z-score was inactive: -0.0511.

On to GGAAUCGAAACCAAUGUGUTT against Il1rl2, for which the z-score is inactive: -0.471. For CGAUGAAUCAGAUUACUUUTT against Trip4, the z-score is inactive: 0.456. As for CGAAUUAAUCUCACAGGAGTT against Vps53, the figure is inactive: 0.44; as for CGACAUGUACGCUUUUUGUTT against Usp44, inactive: -0.894; as for CGCCAGAGUGCAUAGUCUUTT against Mindy2, inactive: 1.94. With CCUGCUAAGAGAGUACUAUTT against Pglyrp2, the z-score is inactive: 1.51.

Take GGUGAUGAAAAAGGACAGCTT against Oit1: the z-score is inactive: 0.0982. As for “GUCUAUCGAUAUUCCAAAATT against D130007C19Rik”, the figure is inactive: 1.96. As for GGCUCACACUGGCUGAAGATT against H2-M10.4, the figure is inactive: 0.0719. As for GCUCCUCUGUAUAAAUUUUTT against Zfp512, the figure is inactive: 0.706. For the sequence GGCUAACCACCCUCUUUCUTT against Rtn4rl1, the z-score was inactive: -1.85. For GCGUAUUUGGUGUUAAAAATT against Iars, the z-score is inactive: 0.417. On to CCUUAUUUGGAUAUGCAGUTT against F2rl3, for which the z-score was inactive: -0.0953. The result for GUUUUGGAACUUGUGAUGATT against Wfdc18 reads inactive: -1.59; that for “GGAGACUGAAGGAAAUUAATT against 2810025M15Rik”, inactive: 0.774; that for “GGACAGGGAAAAGUCCCAUTT against St6galnac6”, inactive: 0.515.

Consider GCAGCGAGUACUAUAUCCGTT against Lmtk3, for which the z-score was inactive: 1.77.

As to GGUUAUCAGAAGUGGAGAGTT against Reg3d, the z-score was inactive: 0.387. For the sequence GGAGGUGGAAUCUUUCCCUTT against Aplp1, the z-score was inactive: -1.68. As for CCGGUAAUGGUGAUAAUUGTT against Sall2, the figure is inactive: -0.729. The result for GGGCAUCUAUCUAUUUACCTT against Mrpl55 reads inactive: 0.203. Take GGAUUUGUGAAGCAGAUAATT against Serinc3: the z-score was inactive: -0.791. As for GGAUGACUGUUACAUUAGGTT against Samd5, the figure is inactive: 0.227; as for GGGAGUUUAUUCAAAAGUGTT against Nrbp1, inactive: 1.12; as for CGAGGAUGAGUUCAGUGAGTT against Pdcl3, inactive: -1.19.

On to GGGAGUGAUUUAAAGUUUCTT against L3mbtl3, for which the z-score is inactive: -0.569. Take GGACAUCUAUGAGUUUAGCTT against Plekhg2: the z-score was inactive: -0.794. As for GGUCAAUGUUUUAGUCAUATT against Olfr1138, the figure is inactive: -0.000857; as for GGUACUGACGCAUCUGAGGTT against Spata5l1, inactive: 1.53; as for GGUUCAGUUAAGUAAACAGTT against Cdh17, inactive: -0.611. Regarding GGAAUUGAACAACCUGUUGTT against Anapc5, the z-score was inactive: 0.218. In the case of GGAUUUGUACACACUUCAATT against Tcim, the z-score was inactive: 1.48.

With GCUGUUACUCUUAAACAAATT against Pdhx, the z-score is inactive: 0.254.

In the case of CCCUACUGUAUUAGAAAACTT against Dnph1, the z-score was active: 2.1.

As for CCAAGGUAGAGGUGGCGAATT against Pick1, the z-score is inactive: 0.779. With GCAACGCAGUACUCUACCCTT against Tns2, the z-score is inactive: 0.557. For GGCCGUAGGCAAUAUCUUATT against Fry, the z-score was inactive: -0.52. The result for CCGCCUAAAAUCAGAAGCATT against Hepacam reads inactive: -1.87.

GCCACCCUUCUGGAGAUUCTT against Gm6787: the z-score was inactive: 1.49. Turning to GGCAGGAAACCAACAAAGATT against Bmp8b, the z-score is inactive: -1.84. The result for GGAAUUCCACAGAUAAUGGTT against Vmn1r82 reads inactive: 0.448; that for GGAUGAGAAUCUUCAGGUUTT against Mtmr3, inactive: 0.421. The result for GGUAUAAACCAAAAAGCAGTT against Wdr27 reads inactive: -0.522.

For the sequence GGGUAAACCUCUCUUGUUATT against Hs3st3a1, the z-score was inactive: 0.0265. As for GGUUGACAACACAUCUGCUTT against Ugt2b34, the figure is inactive: -0.766; as for GCCGAAGACGGAGUAAGUATT against Epha4, inactive: -0.901. As for GGCCAGAUGACAUUUUAGGTT against Map3k9, the figure is inactive: 0.24; as for CCUAUUAUACUGAUCUCGGTT against Gm5420, inactive: -0.841; as for CCAUUCUUUCCUAUGGCUATT against Olfr1415, inactive: 1.06.

For GGAUGUGGGCACAAAAACUTT against St6gal1, the z-score is inactive: -0.953.

As for GCCCAACAUCUGAACAUGCTT against Olfr738, the z-score is inactive: 0.446. Consider GUCCAUAAGCGUACAAUUCTT against Olfr410, for which the z-score is inactive: -1.98. The result for GCCCUACGAUACAGCUUCATT against Psmd7 reads inactive: -0.296; that for GGAAUCGACAUUGAAUGUGTT against Rmnd5b, inactive: -1.41. As for GCAAAAAUUGAAGUCAGUGTT against Serpine2, the figure is inactive: 0.401; as for GGGAUGUUCUUCAAUCCUGTT against Hecw2, inactive: 0.0154; as for GGGUCUGAUCUGUAAUUCATT against Pate4, inactive: 0.0449.

With GCCAGAACCGCAUAUUCUUTT against Cks2, the z-score was inactive: -0.481. As to CCACAGUAUCUAAAAAGAGTT against Ubc, the z-score is inactive: -0.237. Turning to GGACUUCAGACAAUCAAAATT against Gbp5, the z-score was inactive: 0.691.

As to GGAGAAAGGAAAAUAAGAGTT against Npy6r, the z-score was inactive: -0.889. As to GGAAGUGUACCUCAACAGCTT against Lrig1, the z-score is inactive: 1.78. The result for GGAAGAGCUCAACAUCAUUTT against Cnnm1 reads inactive: -1.56; that for CGCUCAGAAGUUGUAGGUGTT against Olfr1264, inactive: 0.278; that for GGCAAUUCUUAGGACAAGUTT against Zfp345, inactive: 1.09.

For “CCUGACACCUAACUUUAAATT against C230013L11Rik”, the z-score was inactive: 0.824.

Take GCAGACCGGAUACUGAACATT against Ddx47: the z-score was inactive: 0.551.

For GGAGACUUAGAAAAAGACUTT against Olfr1426, the z-score was inactive: 1.17.

Consider GGAAGUAUUGAUCAAGUUGTT against Mfsd8, for which the z-score was inactive: 1.65. As for GGUGUUUAUCCUAAUAAACTT against Sox12, the z-score was inactive: -0.59. As for GGUGGAUUGUCACACGAGUTT against Eif2ak2, the figure is inactive: -0.684. Regarding GGAUUCGUAGUGGCUUCAGTT against Htra2, the z-score is inactive: 1.16. For the sequence GCCUCUCAACAUGAAUUAATT against Gm9918, the z-score was inactive: 0.524.

Turning to GCAAGUCUUAAAGCUCUAGTT against Olfr601, the z-score was inactive: 0.818. As for CCCAGGAACAAUAAAGAGGTT against Twist2, the figure is inactive: -0.532; as for GGCUUAUGACGAAUUAGUCTT against Ubn2, inactive: 0.274; as for GCAGGAUACAUUAAUUGUUTT against Ppp4r3b, inactive: 0.593.

Consider CGUACAUCGUCGAGAUUUUTT against Rims1, for which the z-score is inactive: 0.839.

Regarding GGUCAAAAGGAUUCCUGCATT against Gzmk, the z-score is inactive: -0.183. The result for GGUUCCAAAGUGUUUCUGATT against Nsmaf reads inactive: 0.0444; that for GGACUUGGUCAAUCUGACATT against Lrtm2, inactive: -0.262; that for GGCCCAUCCUGAAACCAAATT against Wfdc15b, active: -2.04. With GCAGGAUUGUUAAGAGAAATT against Gnaq, the z-score is inactive: 0.434.
